# Measured values as given in PubChem BioAssay AID504834 (National Center for Advancing Translational Sciences (NCATS), 2011).
# In all, about 320,000 compounds went through this assay and about 22,000 (6.9%) were called active. The inconclusive results got no clear call from the source; some entries with a clear call stand among them for comparison. Calls come from the whole dose curve; as a rule, active = well fitted inhibition curve with a large enough effect; inconclusive = small, poorly fitted or top-dose-only effect, or another doubt; inactive = no such curve, though single readings can be large or run the other way. A potency beside an inconclusive call is a rough fit, not a confirmed value.
# Test: Primary qHTS for delayed death inhibitors of the malarial parasite plastid, 96 hour incubation
# Settings: P. falciparum luciferase reporter growth; series mostly up to 28.7 µM; activity change, negative = inhibition: at the top concentration
# In short: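 Readout is luminescence from an integrated firefly luciferase in P. falciparum. Red cells, 2% hematocrit and 0.05% parasitemia final, were cultured with compound through two parasite generations (96 hours) at 37 C, 5% CO2.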
# % is set by controls: 0 for no effect and ±100 for the full control effect; potency is the fitted concentration of half-maximal effect.
Compound,Potency,"activity change, negative = inhibition"
CCCC(C)C(=O)Nc1ccncc1 (stereo not given),"inconclusive: 10.4 µM [inhibitor, single point]",–
O=C(CN1CCCC1c1cccs1)Nc1cccc(S(=O)(=O)N2CCCC2)c1 (stereo not given),"inconclusive: 18.5 µM [inhibitor, single point]",–
CCOc1cccc(N2C(=O)CC(N3CCN(c4nc5ccccc5s4)CC3)C2=O)c1 (stereo not given),"inconclusive: 7.38 µM [inhibitor, partial curve, poor fit]",–
COc1ccc(C(=O)OCCN2CCCCC2)cc1,"inconclusive: 10.4 µM [inhibitor, single point]",–
NCc1ccccc1Sc1ccccc1CO,–,inactive: -27%
O=C(Cc1cccs1)NC1(C(=O)NC2CCCC2)CCCCC1,"inconclusive: 7.38 µM [inhibitor, partial curve]",–
COc1ccc(/C=C/C(=O)NC(=S)NNC(=O)c2cc(OC)c(OC)c(OC)c2)cc1,"inconclusive: 13.1 µM [inhibitor, single point]",–
Cc1ccc(NC(=O)c2ccc3c(=O)n4c(nc3c2)CCCCC4)cc1F,"inconclusive: 1.04 µM [inhibitor, full curve]",–
COc1ccc(CC(=O)NCc2nnc(SCC(=O)Nc3cccc(F)c3)n2C)cc1,"inconclusive: 0.828 µM [inhibitor, full curve, poor fit]",–
Cc1onc(-c2ccccc2Cl)c1C(=O)NNC(=O)c1ccccc1F,–,inactive: -28.4%
Cc1ccc(N=Cc2c(O)n(-c3ccc4c(c3)OCO4)c(=O)c3ccccc23)cc1,active: 8.28 µM,–
COc1ccc(S(=O)(=O)N2CCN(C(=O)C3CC3)CC2)cc1Br,"inconclusive: 18.5 µM [inhibitor, single point]",–
Cc1ccc(NS(=O)(=O)c2cc3c4c(c2)CC(=O)N4CCC3)cc1C,–,inactive: -14.8%
CCC1(c2ccccc2)NC(=O)N(CC(=O)Nc2ccc(S(=O)(=O)N3CC(C)CC(C)C3)cc2)C1=O (stereo not given),"inconclusive: 18.5 µM [inhibitor, single point]",–
Cc1ccc(N(CC(=O)NCc2ccc(F)cc2)C(=O)CCC(=O)Nc2ccccn2)cc1C,–,inactive: -29.2%
CCN(CC)S(=O)(=O)c1ccc(Oc2ccccc2OC)cc1,"inconclusive: 11.7 µM [inhibitor, partial curve, poor fit]",–
Cc1cc(N/N=C/c2ccncc2)c([N+](=O)[O-])cc1[N+](=O)[O-],"inconclusive: 10.4 µM [inhibitor, single point]",–
Cc1cc(C)n(CC(O)COc2ccccc2Br)n1 (stereo not given),"inconclusive: 16.5 µM [inhibitor, single point]",–
CCOC(=O)C1=C(C)N(C)C(=O)C1CC(=O)O (stereo not given),"inconclusive: 11.7 µM [inhibitor, partial curve]",–
COc1ccc2c(c1)C(=O)/C(=C/C=C/c1ccccc1)CC2,active: 2.33 µM,–
N#CCSc1nc2c(c(=O)n1Cc1ccco1)C1(CCCC1)Cc1ccccc1-2,"inconclusive: 18.5 µM [inhibitor, single point]",–
Cc1cnc(NC(=O)Cc2ccc(Br)cc2)s1,"inconclusive: 18.5 µM [inhibitor, single point]",–
Cc1cccc(CN2CCN(Cc3nc4c(s3)CCCC4)CC2CCO)n1 (stereo not given),–,inactive: 21.5%
COc1ccc(S(=O)(=O)NCCN2CCOCC2)c(C)c1C,–,inactive: -11.2%

# Complete entries, looked up by structure:
# COc1ccc(S(=O)(=O)NCCN2CCOCC2)c(C)c1C reads activity change, negative = inhibition: inactive: -11.2%
# COc1ccc(/C=C/C(=O)NC(=S)NNC(=O)c2cc(OC)c(OC)c(OC)c2)cc1 reads Potency: inconclusive: 13.1 µM [inhibitor, single point]
# O=C(Cc1cccs1)NC1(C(=O)NC2CCCC2)CCCCC1 reads Potency: inconclusive: 7.38 µM [inhibitor, partial curve]
# Cc1cc(N/N=C/c2ccncc2)c([N+](=O)[O-])cc1[N+](=O)[O-] reads Potency: inconclusive: 10.4 µM [inhibitor, single point]

# (listing goes on)

Compound,Potency,"activity change, negative = inhibition"
CC(C)OCCCNC(=O)NC12CC3CC(CC(C3)C1)C2,–,inactive: 4.16%
Cc1ccc(C2CC(c3cccs3)=NN2C(=O)c2ccco2)o1 (stereo not given),–,inactive: 2.27%
CCC(=O)Nc1cccc(NC(=S)NC(=O)c2ccccc2Cl)c1,"inconclusive: 14.7 µM [inhibitor, partial curve, poor fit]",–
CN1C(C(=O)NCCc2cccs2)CC2Cn3c(nc4ccccc43)C21 (stereo not given),–,inactive: 3.51%
COc1ccc(-n2cc(CN(C)C(C)c3ccncn3)c(-c3cccc(F)c3)n2)cc1 (stereo not given),–,inactive: 8.27%
CN(c1cccc(NC(=O)c2ccc(Cl)c(S(=O)(=O)N3CCOCC3)c2)c1)S(C)(=O)=O,"inconclusive: 18.5 µM [inhibitor, single point]",–
COc1cccc(C2=CC(c3ccccc3)n3ncnc3N2)c1 (stereo not given),"inconclusive: 20.8 µM [inhibitor, partial curve, poor fit]",–
COc1ccc(/C=C(/C(=O)Nc2ccccc2C(=O)N2CCCC2)c2ccccc2)cc1,"inconclusive: 18.5 µM [inhibitor, single point]",–
O=C(NC1CCCC1)C(c1cccnc1)N(Cc1ccccc1F)C(=O)c1csnn1 (stereo not given),–,inactive: 32.2%
CC(=O)N/C(=N\OCc1ccccc1Cl)c1nonc1NC(C)=O,"inconclusive: 10.4 µM [inhibitor, partial curve, poor fit]",–
Cn1c(=O)c2c(-c3ccccc3)n(-c3ccccc3O)cc2n(C)c1=O,"inconclusive: 0.465 µM [inhibitor, full curve, poor fit]",–
CCC(C)c1ccccc1NC(=O)COC(=O)c1ccc2[nH]c3c(c2c1)CCCC3 (stereo not given),"inconclusive: 10.4 µM [inhibitor, single point]",–
Cc1sc(NC(=O)c2ccco2)c(CN2CCN(c3ccccc3)CC2)c1C,"inconclusive: 5.86 µM [inhibitor, partial curve, poor fit]",–
CN1C[C@@H]2C(c3ccc(Cl)nc3)C3(c4ccc(C#N)cc4)CC2(C3)[C@H]1c1ccccc1 (stereo not given in full),"inconclusive: 13.1 µM [inhibitor, single point]",–
CCCOc1nc2ccccc2cc1/C=C/C(=O)O,"inconclusive: 10.4 µM [inhibitor, single point]",–
COc1ccc(/C(O)=C/c2nc3ccc(C(=O)NCCc4cccc(C)c4)cc3[nH]c2=O)cc1OC,"inconclusive: 18.5 µM [inhibitor, single point]",–
CC1(C)Cc2c(sc3nc(-c4cc5ccccc5o4)n(N)c(=O)c23)CO1,"inconclusive: 10.4 µM [inhibitor, partial curve, poor fit]",–
CCC(CO)NCc1cc(OC)c(OCC(=O)NCCc2ccccc2)cc1Br (stereo not given),active: 4.15 µM,–
COc1ccc(NC(=O)COC(=O)C2CCN(S(=O)(=O)c3ccccc3)CC2)cc1Cl,–,inactive: 10.6%
COCCCN1CC(=O)N2C(c3cccc(OC)c3)c3[nH]c4ccccc4c3C[C@H]2C1=O (stereo not given in full),"inconclusive: 1.04 µM [inhibitor, partial curve, poor fit]",–
CCn1c(O)c(N=NC(=O)c2cccs2)c2ccccc21,"inconclusive: 5.22 µM [inhibitor, partial curve, poor fit]",–
O=C(c1ccc2nc(-c3ccco3)c(-c3ccco3)nc2c1)N1CCN(c2ncccn2)CC1,–,inactive: 1.48%
Nc1c(S(=O)(=O)c2ccccc2)c2nc3ccccc3nc2n1Cc1ccco1,active: 11.7 µM,–
Cc1oc(-c2ccccc2F)nc1CS(=O)(=O)CC(=O)NCCCN1CC(C)CC(C)C1 (stereo not given),"inconclusive: 18.5 µM [inhibitor, single point]",–

Compound,Potency,"activity change, negative = inhibition"
CCOC(=O)c1sc(NC(=O)Nc2ccc(Cl)cc2)cc1C,"inconclusive: 18.5 µM [inhibitor, single point]",–
CCOC(=O)c1c(NC(=O)COc2cccc3c2CCN(CC)C3=O)sc2c1CCC2,"inconclusive: 4.15 µM [inhibitor, single point]",–
Cn1ncc(Cl)c(Oc2ccc(C(C)(C)C)cc2)c1=O,"inconclusive: 4.65 µM [inhibitor, partial curve]",–
CC1=CC(=C(C#N)C#N)C=C(C)N1CCN1CCN(C(=O)Nc2ccc(Cl)c(Cl)c2)CC1,"inconclusive: 3.29 µM [inhibitor, partial curve]",–
COc1ccnc(Oc2ccccc2)c1C(=O)N/C=N/OCc1ccccc1,–,inactive: -2.37%
CCOc1c(C(N)=O)c(-c2ccccc2)c2c(=O)[nH]c3ccccc3n12,"inconclusive: 11.7 µM [inhibitor, single point]",–
CCc1c(C)sc(NC(=O)C2CC(c3c(F)cccc3Cl)=NO2)c1C#N (stereo not given),"inconclusive: 13.1 µM [inhibitor, single point]",–
O=C(COc1ccc(Cl)cc1Cl)N1CCCC1,–,inactive: -14%
O=C(CS(=O)(=O)c1ccccc1)N1CCCCC1,active: 2.62 µM,–
Cc1c2c(nc3nc4ccccc4n13)CC(C)(C)CC2=O,"inconclusive: 3.7 µM [inhibitor, partial curve]",–
CN1C(=O)C(=Cc2sc(=O)n(-c3ccccc3)c2N(C)C)C(=O)N(C)C1=O,–,inactive: -28.5%
CCOc1ccccc1OCCCCCc1c(C)n[nH]c1C,"inconclusive: 18.5 µM [inhibitor, single point]",–
CC(OC(=O)c1ccc(NC(=O)CC#N)cc1)C(=O)NCCC1=CCCCC1 (stereo not given),active: 10.4 µM,–
CC(=O)Nc1ccc(NC(=O)CSc2nc(N)c(NC(=O)c3ccccc3F)c(=O)[nH]2)cc1,active: 11.7 µM,–
COc1ccc(/C=N/NC(=S)NC2CCS(=O)(=O)C2)cc1OC (stereo not given),"inconclusive: 18.5 µM [inhibitor, single point]",–
CN(C(=O)CC1C(=O)NCCN1Cc1ccccc1C(F)(F)F)C1CCOCC1 (stereo not given),–,inactive: 0.31%
COCCn1nnnc1CN1C2CCCC1CC(NC(C)=O)C2 (stereo not given),active: 13.1 µM,–
CC1=NN(c2ccccc2)C(=O)/C1=C/c1cn(C)c2ccccc12,active: 7.38 µM,–
COc1ccc(Cc2nc3ccc(C(=O)NCCCSC)cc3o2)cc1OC,active: 2.94 µM,–
Cc1cc2ccccc2c(=O)n1CC(=O)NCCC1=CCCCC1,"inconclusive: 11.7 µM [inhibitor, single point]",–
O=C1NC2(CCCCC2)C(=O)N1/N=C/c1ccc(O)cc1O,"inconclusive: 10.4 µM [inhibitor, single point]",–
O=C(Nc1cccc(Cl)c1)c1ccc2c(c1)SC1=NS(=O)(=O)CCN12,"inconclusive: 13.1 µM [inhibitor, single point]",–
